# Reference: PubChem BioAssay AID504774 (Drosophila RNAi Screening Center, 2011)
# Assay: 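Genes required for cells to withstand methyl methanesulphonate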 (primary screen)
# Cells: Drosophila Kc167 cells
# Reagent: long dsRNA against Drosophila genes, about 0.25 µg dsRNA per well
# Duration: about 6 days: 3 days knock-down, then 3 days with or without MMS
# Treatment: methyl methanesulphonate 0.004% (w/v) for 3 days after knock-down
# Read-out: 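Viability in wells given MMS, read as ATP luminescence, normalised by quantiles plate by plate and averaged across replicates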
# Reading the numbers: mean viability with MMS and viability with MMS: higher = more surviving cells after MMS
# In all, the deposit lists about 23,000 reagents; this is an unselected part of those with a known target gene and a result. 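Values are quantile-normalised luminescence on an arbitrary scale; higher means more cells surviving MMS.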 A plus sign joins genes that one reagent is predicted to hit. Not all columns of the deposit are shown. Reagent sequences are not shown.
target gene,PubChem SID,mean viability with MMS,"viability with MMS, replicate 1"
SerRS-m,SID104193888,3.44e6,4.02e6
CG31661,SID104180088,3.41e6,3.88e6
Gasz,SID104186621,3.66e6,4.05e6
CG8765,SID104190833,3.22e6,3.63e6
CG8765,SID104202400,3.41e6,3.88e6
Ctr1C,SID104194881,3.61e6,4.07e6
CG6966,SID104195948,3.51e6,4.00e6
CG42506 (retired record) + CG43759,SID104199256,3.63e6,4.22e6
CG42506 (retired record) + CG43759,SID104199335,3.58e6,4.11e6
CG31013,SID104196334,3.48e6,3.88e6
alphaSnap,SID104191077,3.41e6,3.84e6
Tpi,SID104196680,3.50e6,3.92e6
rau,SID104182917,3.61e6,4.22e6
Naa80,SID104196221,3.52e6,3.98e6
Nepl6,SID104183034,1.77e6,3.90e6
nAChRalpha1,SID104193456,3.40e6,3.88e6
nAChRalpha1,SID104193462,2.87e6,3.57e6
nAChRalpha1,SID104193464,3.52e6,3.85e6
nAChRalpha1,SID104196800,3.43e6,3.79e6
brp,SID104186037,3.58e6,3.99e6
brp,SID104186038,3.56e6,3.93e6
brp,SID104186593,3.51e6,3.88e6
brp,SID104201521,3.59e6,4.12e6
ct,SID104198549,2.75e6,3.36e6
CG17982,SID104197935,3.57e6,4.13e6
Chd3,SID104190906,3.29e6,3.78e6
CG30075,SID104185276,3.47e6,4.07e6
eEF5,SID104184473,3.39e6,3.83e6
CG31249,SID104196040,3.44e6,3.98e6
CG17568,SID104182420,3.73e6,3.86e6
CG42361,SID104184183,3.57e6,4.15e6
CG13078,SID104181974,3.43e6,3.90e6
CG11300,SID104183896,3.53e6,4.06e6
CG7737,SID104186825,3.60e6,4.09e6
egg,SID104183911,2.94e6,2.82e6
egg,SID104201974,3.86e6,4.53e6
CG3592,SID104198107,3.59e6,4.07e6
Elo68beta,SID104189652,3.77e6,4.15e6
CG7031,SID104195970,2.88e6,3.58e6
CG7031,SID104202385,3.48e6,3.93e6
CG33992 (retired record) + CG43755,SID104179804,3.52e6,4.15e6
Reg-5,SID104184439,3.18e6,2.86e6
RNaseX25,SID104191051,3.47e6,4.00e6
MED11,SID104190531,2.88e6,3.49e6
MED11,SID104202448,2.95e6,3.03e6
Acbp3,SID104190814,3.72e6,4.14e6
Ugt302E1,SID104195427,3.44e6,4.00e6
CG6325,SID104195812,3.58e6,4.12e6
CG32104,SID104189919,3.34e6,3.87e6
CG32104,SID104189920,3.31e6,3.83e6
Met75Ca + Met75Cb,SID104189341,3.61e6,3.96e6
Met75Ca + Met75Cb,SID104191013,3.54e6,3.99e6
CG32100,SID104189517,3.42e6,3.83e6
CG32100,SID104190123,3.44e6,3.89e6
ScpX,SID104183222,3.64e6,4.05e6
CG13404,SID104199328,3.56e6,3.97e6
CG1544,SID104194828,3.39e6,3.90e6
Rhau,SID104182992,3.41e6,3.74e6
CG42523,SID104180043,3.37e6,3.91e6
Chrac-16,SID104200135,3.30e6,3.76e6
mRpL49,SID104199700,3.60e6,4.21e6
CG9312,SID104196263,3.54e6,4.05e6
Irk2,SID104195361,3.71e6,4.18e6
nonC,SID104198158,3.54e6,4.05e6
nonC,SID104198159,3.47e6,3.91e6
CG33017,SID104186365,3.43e6,3.79e6
CG33017,SID104186366,3.66e6,4.05e6
Ack-like,SID104187292,3.42e6,3.68e6
